PubChem BioAssay AID504808 – Drosophila RNAi Screening Center | 2011
Purpose: 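Fly genes required to hold E2F transcription in check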 (primary screen). Cell system: Drosophila S2 cells. Reagents: long dsRNA against Drosophila genes. Measured: 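Firefly luciferase driven by E2F sites, normalised to Renilla luciferase on the same minimal promoter, measured by plate reader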. Scale: E2F firefly: higher = more E2F reporter activity; Renilla normaliser: higher = more normaliser reporter signal. Call rule: 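Called active if the normalised E2F reporter went up by over 50%; the cutoff is arbitrary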.
The deposit covers about 21,000 reagents; below is an unselected part of those that have a named target and a result. Over the whole deposit, 18 (0.084%) were called active. 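Raw counts without plate normalisation, one of two replicates; the ratio scores behind the calls were not deposited.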 Reagents against one gene are numbered here. A plus sign joins genes that one reagent is predicted to hit. No sequences are given here. Not stated in the record: the amount of reagent, the time to read-out.

target gene	reagent	E2F firefly, rep 1	Renilla normaliser, rep 1	call
CG13605	1	79353	3974	inactive
CG15306	1	63925	4565	inactive
CG15306	2	1.08e5	8339	inactive
CG34355	1	81176	2610	inactive
CG34355	2	1.14e5	5502	inactive
CG34355	3	1.11e5	6272	inactive
mRpS18C	1	1.28e5	6274	inactive
Mkp3	1	76947	3176	inactive
Mkp3	2	1.51e5	6888	inactive
CG32982	1	1.03e5	5669	inactive
CG32982	2	1.73e5	5207	inactive
CG32982	3	1.67e5	5415	inactive
CG32982	4	1.49e5	4712	inactive
vap	1	8409	764	inactive
CG6891	1	1.61e5	6601	inactive
mRpL55	1	1.35e5	7130	inactive
CG31075	1	1.25e5	6605	inactive
CG44836	1	1.65e5	7353	inactive
RecQ5	1	77913	3744	inactive
BomT2	1	1.40e5	5011	inactive
Obp56d	1	1.61e5	5356	inactive
pck	1	1720	976	inactive
Sgs5bis	1	96688	4962	inactive
CG1172	1	1.35e5	7083	inactive
Dscam2	1	1.29e5	5441	inactive
Dscam2	2	90425	3530	inactive
Dscam2	3	95319	4009	inactive
Dscam2	4	98386	3902	inactive
CG7044	1	1.24e5	6631	inactive
MED20	1	1.15e5	4851	inactive
Ptp4E	1	8157	708	inactive
CCAP	1	1.03e5	5352	inactive
Fer2LCH	1	1.16e5	5540	inactive
Megf8	1	94392	4104	inactive
CG4558	1	7368	616	inactive
CG17190	1	1.35e5	6645	inactive
Ugt36F1	1	1.04e5	4499	inactive
CG16756	1	1.14e5	7466	inactive
CG14054	1	1.07e5	6533	inactive
CG12869	1	1.05e5	4262	inactive
Cp19	1	92191	3851	inactive
hpRNA:CR32207	1	87534	3915	inactive
Ant2	1	7572	716	inactive
CG31769	1	1.32e5	5411	inactive
CG34278	1	89307	2757	inactive
RpL17	1	5963	896	inactive
p38a	1	1.01e5	5042	inactive
CG16853	1	1.10e5	4456	inactive
neb	1	80867	3405	inactive
CG13476	1	1.52e5	6495	inactive
CG14095	1	1.43e5	6001	inactive
Slmap	1	92452	4179	inactive
Prestin	1	1.20e5	6449	inactive
tth	1	8723	720	inactive
Flad2	1	1.07e5	4530	inactive
Esp	1	1.10e5	5685	inactive
Rab1	1	1.15e5	7933	inactive
Hel25E	1	56112	213	inactive
CG34301	1	55173	5065	inactive
Kpc2	1	1.34e5	4886	inactive
CG43867	1	82581	2308	inactive
CG43867	2	1.25e5	5999	inactive
CG43867	3	61914	4408	inactive
CG43867	4	40573	3581	inactive
EMC2B	1	1.14e5	7176	inactive
CG14929 + CG4970 + CG14930	1	1.46e5	4950	inactive
yellow-c + CIAPIN1	1	1.04e5	4492	inactive
CG12507	1	2.20e5	5918	inactive
CG6465	1	80166	4183	inactive
CG4982	1	51642	3188	inactive
alpha-Est9	1	1.41e5	5755	inactive
CG1542	1	1594	1196	inactive
Gpb5	1	72494	5023	inactive
CG4101	1	1.66e5	8126	inactive
pkm	1	7998	688	inactive
e(y)2	1	1.17e5	6248	inactive
NK7.1	1	61356	3351	inactive
Sfxn2	1	1.39e5	6862	inactive
CG7402	1	1.66e5	8678	inactive
CG17985	1	1.41e5	5263	inactive
Kap-alpha1	1	1.17e5	7164	inactive
CG14990	1	94482	3966	inactive
CG15084	1	70891	3254	inactive
CG13676	1	84524	3493	inactive

5 neighbouring records from above, quoted:
target gene	reagent	E2F firefly, rep 1	Renilla normaliser, rep 1	call
Obp56d	1	1.61e5	5356	inactive
pck	1	1720	976	inactive
Sgs5bis	1	96688	4962	inactive
CG1172	1	1.35e5	7083	inactive
Dscam2	1	1.29e5	5441	inactive
